Assay results as given in PMC8395040 (International Journal of Molecular Sciences, 2021).
“And” between values parts separate entries of the source, which are not always exact repeats. Equal values may be shown once.

What was measured:
Type in all cases: cell-based, human
AsPC-1 = test: MTT cytotoxicity assay, AsPC-1; settings: IC50 HEK293/IC50 AsPC-1; HEK >50 taken as 50 µM
Description: (§1) Cytotoxicity assays were performed by using the MTT reduction method as described previously. Briefly, cancer cell lines were plated in flat-bottom 96-well plates at a cell concentration of 5 × 10^3 cells/well for the fastest growing lines, such as HEK293 and HT29 cells and 1 × 10^4 cells/well for more slowly growing lines, such as HCT116, H1975, BxPC-3, AsPC-1, B16-F10 and DAOY. Then, cells were incubated with the synthesised compounds at different concentrations (from 0.05 to 50 µM) in 200 µL with 10% FBS in RPMI 1640 or DMEM F12 culture medium at 37 °C for 72 h. Later, 10 µL of MTT were added at a final concentration of 0.5 mg/mL, incubated at 37 °C for 4 h, and then solubilised with 10% sodium dodecyl sulphate (SDS) in 0.1 mM HCl and incubated overnight at 37 °C. Formazan formation was measured at 570 nm in a multiwell plate reader (Cytation 5, Biotek Instruments, Winooski, VT, USA). Three independent biological replicates were performed.

HCT116 = test: MTT cytotoxicity assay, HCT116; settings: IC50 HEK293/IC50 HCT116; HEK >50 taken as 50 µM
Description: as §1

H1975 = test: MTT cytotoxicity assay, H1975; settings: IC50 HEK293/IC50 H1975; HEK >50 taken as 50 µM
Description: as §1

BxPC-3 = test: MTT cytotoxicity assay, BxPC-3; settings: IC50 HEK293/IC50 BxPC-3; HEK >50 taken as 50 µM
Description: as §1

HT29 = test: MTT cytotoxicity assay, HT29; settings: IC50 HEK293/IC50 HT29; HEK >50 taken as 50 µM
Description: as §1

SMILES | SI AsPC-1 (AsPC-1) | SI HCT116 (HCT116) | SI H1975 (H1975) | SI BxPC-3 (BxPC-3) | SI HT29 (HT29)
CCCCn1cnc2c(-c3ccc(OC(F)(F)F)cc3)nc(NC3CCCC3)nc21 [Compound 4a, 9-Butyl-N-cyclopentyl-6-(4-(trifluoromethoxy)phenyl)-9H-purin-2-amine] | 2.5 | 1.6 | 1.5 | – | –
CCCCCCn1cnc2c(-c3ccc(OC(F)(F)F)cc3)nc(NC3CCCC3)nc21 [Compound 4c, N-cyclopentyl-9-hexyl-6-(4-(trifluoromethoxy)phenyl)-9H-purin-2-amine] | 1.0 | – | 2.6 | – | –
CCCCCn1cnc2c(-c3ccc(OC(F)(F)F)cc3)nc(NC3CCCCC3)nc21 [Compound 4e, N-cyclohexyl-9-pentyl-6-(4-(trifluoromethoxy)phenyl)-9H-purin-2-amine] | 1.0 | – | 2.2 | – | –
CCCCCn1cnc2c(-c3ccc(OC(F)(F)F)cc3)nc(NCC3CCCCC3)nc21 [Compound 4h, N-(cyclohexylmethyl)-9-pentyl-6-(4-(trifluoromethoxy)phenyl)-9H-purin-2-amine] | 1.0 | – | 1.3 | – | –
CCCCCn1cnc2c(-c3ccc(OC(F)(F)F)cc3)nc(N3CCN(c4ccncc4)CC3)nc21 [Compound 4r, 9-Pentyl-2-(4-(pyridin-4-yl)piperazin-1-yl)-6-(4-(trifluoromethoxy)phenyl)-9H-purine] | 1.0 | 2.6 | 6.5 | – | –
CCCCCCn1cnc2c(-c3ccc(OC(F)(F)F)cc3)nc(N3CCN(c4ccncc4)CC3)nc21 [Compound 4s, 9-Hexyl-2-(4-(pyridin-4-yl)piperazin-1-yl)-6-(4-(trifluoromethoxy)phenyl)-9H-purine] | 29 and >29 | 38 | 33 | 12 | 3.3
O=c1[nH]cc(F)c(=O)[nH]1 [Compound 5-FU, 5-fluorouracil, reference compound] | – | 0.03 | – | – | 1.6
COc1cc([C@@H]2c3cc4c(cc3[C@@H](O[C@@H]3O[C@@H]5CO[C@@H](C)O[C@H]5[C@H](O)[C@H]3O)[C@H]3COC(=O)[C@H]23)OCO4)cc(OC)c1O [Etoposide, reference compound] | – | 0.9 | 0.2 | – | –
Nc1ccn([C@@H]2O[C@H](CO)[C@@H](O)C2(F)F)c(=O)n1 [Gemcitabine, reference compound] | 25 | – | – | 38 | –
